Experimental data from PubChem BioAssay AID743266 (National Center for Advancing Translational Sciences (NCATS), 2014).
In all, about 410,000 compounds went through this assay and about 310 (0.076%) were called active. This list was built around the results that the source calls inconclusive (neither active nor inactive); the mix of calls is not that of the screen. The call rests on the fitted dose curve; in most records, active means well fitted activation curve with a large enough effect; inconclusive means small, poorly fitted or top-dose-only effect, or another doubt; inactive means no such curve, though single readings can be large or run the other way. Potencies beside an inconclusive call are fits to weak or partial responses and may not hold up.

Protein sequences, listed by entry. Tags and fused reporters are not part of them. Lines headed by an entry give the natural chain unless they say otherwise; changes in a name come on top.
UniProt Q03431: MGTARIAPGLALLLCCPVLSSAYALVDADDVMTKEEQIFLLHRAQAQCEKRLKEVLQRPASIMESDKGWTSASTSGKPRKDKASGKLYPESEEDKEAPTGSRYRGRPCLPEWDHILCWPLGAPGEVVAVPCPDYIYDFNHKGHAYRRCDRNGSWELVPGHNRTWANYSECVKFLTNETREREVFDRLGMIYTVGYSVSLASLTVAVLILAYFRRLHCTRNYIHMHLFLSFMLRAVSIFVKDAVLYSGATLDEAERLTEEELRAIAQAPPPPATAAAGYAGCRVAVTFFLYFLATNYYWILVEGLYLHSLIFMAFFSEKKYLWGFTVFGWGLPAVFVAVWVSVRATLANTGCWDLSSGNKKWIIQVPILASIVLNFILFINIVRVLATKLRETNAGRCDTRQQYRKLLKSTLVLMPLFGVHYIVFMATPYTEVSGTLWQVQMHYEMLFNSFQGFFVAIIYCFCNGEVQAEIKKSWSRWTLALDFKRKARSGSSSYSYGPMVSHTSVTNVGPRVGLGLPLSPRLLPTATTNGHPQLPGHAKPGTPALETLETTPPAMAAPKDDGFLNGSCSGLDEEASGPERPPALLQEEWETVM

Biological target: Parathyroid hormone/parathyroid hormone-related peptide receptor (Homo sapiens) (UniProt Q03431)
Test: qHTS for PTHR1 Agonists: Primary Screen; further: nearly all actives have a fitted effect of over 55% in size
Conditions: HEK293 GP2 PTHR1 cells, GloSensor cAMP luminescence, 1 h; activation: at 115 µM (top of the series) unless noted; series mostly up to 115 µM
In short: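 HEK-293-derived GP2 cells expressing PTHR1 and a GloSensor cAMP reporter, 3,000/well, plated overnight, given luciferin plus IBMX (each 0.5 mM as added) for 1 h at 37 °C, then compound for 1 h at 37 °C. Luminescence was read after 15 min at room temperature.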
Potency means the concentration at half of the fitted maximal effect.

Potency, inactive:
CCCN1CCC2(CC1)NC(C(=O)O)Cc1c2[nH]c2ccccc12 (centres undefined)
Cc1ccc(-c2cc(C(=O)N3CCc4ccccc4C3)[nH]n2)cc1C
COc1ccc(-c2nc(-c3ccccc3)c(-c3ccccc3)[nH]2)cc1Br
COc1cc(/C=N/NC(=O)Cc2ccccc2)cc([N+](=O)[O-])c1O
COc1ccc(N(CC(=O)Nc2ccccc2OC)S(=O)(=O)c2ccc(NC(C)=O)cc2)cc1

Potency, inconclusive:
COc1cc(C)nc(N2CCC(C(=O)NC3CCCCC3)CC2)n1 39.8 µM [activator, single point]
COc1cccc(N(CC(=O)NCC2CCCO2)C(=O)CNS(=O)(=O)c2ccccc2)c1 (centres undefined) 14.1 µM [activator, partial curve]
C=CCNC(N)=S 141 µM [activator, single point]
Cc1ccccc1C(OCC(O)CN1CCCCC1CCO)c1ccccc1 (centres undefined) 15.8 µM [activator, partial curve]
O=C(C1CCCO1)N1CCN(C(=S)Nc2ccccc2Cl)CC1 (centres undefined) 28.2 µM [activator, single point]
COc1ccc(NC(=O)c2nnn(CC(=O)Nc3ccc4c(c3)OCO4)c2N)c(OC)c1 112 µM [activator, single point]
Cc1cc(NC(=O)CSc2ccc3nnc(-c4ccc(F)cc4)n3n2)no1 39.8 µM [activator, single point]
Cc1cc(-c2ccn[nH]2)c(C)s1 112 µM [activator, single point]
Cc1noc(C)c1C(=O)Nc1cccnc1 22.4 µM [activator, partial curve]
CN1CCN(Cc2nc3ccccc3n2C)CC1CCO (centres undefined) 126 µM [activator, single point]
COc1ccc(/C=C\c2onc(C)c2S(=O)(=O)N2CCC(C(=O)Nc3ccccc3OC)CC2)cc1 158 µM [activator, single point]

Two entries picked at random from those above, as already listed:
Potency, inconclusive:
C=CCNC(N)=S 141 µM [activator, single point]
O=C(C1CCCO1)N1CCN(C(=S)Nc2ccccc2Cl)CC1 (centres undefined) 28.2 µM [activator, single point]

Following part:

activation, inconclusive:
Cc1ccc(-c2csc(N3CCC[C@@H]3C(=O)NCCn3c(C(F)(F)F)nc4ccccc43)n2)cc1 -49.6% [activator]
COc1ccc(-c2noc(-c3ccc(NC4CCCC4)c([N+](=O)[O-])c3)n2)cc1 -57% [activator]
CCOC(=O)[C@@H](NC(=O)/C=C/[C@H]1O[C@@H](n2cc(C)c(=O)[nH]c2=O)C[C@@H]1O)C(C)C 30.9% [activator]
